{
  "source": "the supplement of paper PMC8728848",
  "binders": {"B1": {"name": "LlpA1 (Pseudomonas fluorescens), Q4KHC3 (protein)", "chain": "MGSSHHHHHHSSGLVPRGSHMAWIRYDFTDNGSSVLPARYYMAPNQYLQSPNKRFKLLFQADGNLALYDGAQLAWVADQNTPFTNVSKGNKKDPMMVFMNYGFVLDDPLRGRIWSTTPSDPTMGSREDASLRAFTQVQDDGNIVTVDTIPHWYAPNGRVFTPAVGAAMIIGGTTELVPGQFYSAGEHSLVFQGDGNLVVYGPNSSVIWATYTQNKGGVRCVMQEDGNLVIYAANNGVVWQSGTGGHPGATIRLQANGSFTIVTERPVWARFGYTPTIKPPRVFYPDHKWKTGSYTWNNVF"}},
  "experiment_in_all_cases": "glycan array binding signal (z-score within array); higher = stronger binding",
  "settings_in_all_cases": "glycan notation: IUPAC condensed, linker removed",
  "key": {"[1]": {"target": "Fuc(a1-2)[Gal(a1-3)]Gal(b1-4)GlcNAc(b1-2)Man(a1-3)[Fuc(a1-2)[Gal(a1-3)]Gal(b1-4)GlcNAc(b1-2)Man(a1-6)]Man(b1-4)GlcNAc(b1-4)[Fuc(a1-6)]GlcNAc", "method_in_brief": "(§1)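 From the Consortium for Functional Glycomics database, 3228 arrays were curated, keeping only those whose protein sequence was available. Binding is given as a within-array Z-score averaged across arrays sharing a protein sequence and across linkers. Negative Z-scores can be read as non-binding.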"}, "[2]": {"target": "Fuc(a1-2)[Gal(a1-3)]Gal(b1-4)GlcNAc(b1-3)GalNAc", "method_in_brief": "as §1"}, "[3]": {"target": "Fuc(a1-2)[Gal(a1-3)]Gal(b1-4)GlcNAc(b1-3)[Fuc(a1-2)[Gal(a1-3)]Gal(b1-4)GlcNAc(b1-6)]GalNAc", "method_in_brief": "as §1"}, "[4]": {"target": "Fuc(a1-2)[Gal(a1-3)]Gal(b1-4)GlcNAc(b1-6)GalNAc", "method_in_brief": "as §1"}, "[5]": {"target": "Fuc(a1-2)[Gal(a1-3)]Gal(b1-4)[Fuc(a1-3)]Glc", "method_in_brief": "as §1"}, "[6]": {"target": "Fuc(a1-2)[Gal(a1-3)]Gal(b1-4)[Fuc(a1-3)]GlcNAc", "method_in_brief": "as §1"}, "[7]": {"target": "Fuc(a1-2)[Gal(a1-3)]Gal(b1-4)[Fuc(a1-3)]GlcNAc(b1-3)GalNAc", "method_in_brief": "as §1"}, "[8]": {"target": "Fuc(a1-2)[Gal(a1-4)]Gal(b1-4)GlcNAc", "method_in_brief": "as §1"}, "[9]": {"target": "Fuc(a1-2)[GalNAc(a1-3)]Gal", "method_in_brief": "as §1"}, "[10]": {"target": "Fuc(a1-2)[GalNAc(a1-3)]Gal(b1-3)GalNAc(a1-3)[Fuc(a1-2)]Gal(b1-4)GlcNAc", "method_in_brief": "as §1"}, "[11]": {"target": "Fuc(a1-2)[GalNAc(a1-3)]Gal(b1-3)GalNAc(b1-3)Gal(a1-4)Gal(b1-4)Glc", "method_in_brief": "as §1"}, "[12]": {"target": "Fuc(a1-2)[GalNAc(a1-3)]Gal(b1-3)GlcNAc", "method_in_brief": "as §1"}, "[13]": {"target": "Fuc(a1-2)[GalNAc(a1-3)]Gal(b1-3)GlcNAc(b1-2)Man(a1-3)[Fuc(a1-2)[GalNAc(a1-3)]Gal(b1-3)GlcNAc(b1-2)Man(a1-6)]Man(b1-4)GlcNAc(b1-4)GlcNAc", "method_in_brief": "as §1"}, "[14]": {"target": "Fuc(a1-2)[GalNAc(a1-3)]Gal(b1-3)GlcNAc(b1-2)Man(a1-3)[Fuc(a1-2)[GalNAc(a1-3)]Gal(b1-3)GlcNAc(b1-2)Man(a1-6)]Man(b1-4)GlcNAc(b1-4)[Fuc(a1-6)]GlcNAc", "method_in_brief": "as §1"}, "[15]": {"target": "Fuc(a1-2)[GalNAc(a1-3)]Gal(b1-3)GlcNAc(b1-3)GalNAc", "method_in_brief": "as §1"}, "[16]": {"target": "Fuc(a1-2)[GalNAc(a1-3)]Gal(b1-3)GlcNAc(b1-6)GalNAc", "method_in_brief": "as §1"}, "[17]": {"target": "Fuc(a1-2)[GalNAc(a1-3)]Gal(b1-4)Glc", "method_in_brief": "as §1"}, "[18]": {"target": "Fuc(a1-2)[GalNAc(a1-3)]Gal(b1-4)GlcNAc", "method_in_brief": "as §1"}, "[19]": {"target": "Fuc(a1-2)[GalNAc(a1-3)]Gal(b1-4)GlcNAc(b1-2)Man", "method_in_brief": "as §1"}, "[20]": {"target": "Fuc(a1-2)[GalNAc(a1-3)]Gal(b1-4)GlcNAc(b1-2)Man(a1-3)[Fuc(a1-2)[GalNAc(a1-3)]Gal(b1-4)GlcNAc(b1-2)Man(a1-6)]Man(b1-4)GlcNAc(b1-4)GlcNAc", "method_in_brief": "as §1"}, "[21]": {"target": "Fuc(a1-2)[GalNAc(a1-3)]Gal(b1-4)GlcNAc(b1-2)Man(a1-3)[Fuc(a1-2)[GalNAc(a1-3)]Gal(b1-4)GlcNAc(b1-2)Man(a1-6)]Man(b1-4)GlcNAc(b1-4)[Fuc(a1-6)]GlcNAc", "method_in_brief": "as §1"}, "[22]": {"target": "Fuc(a1-2)[GalNAc(a1-3)]Gal(b1-4)GlcNAc(b1-3)Gal(b1-4)GlcNAc", "method_in_brief": "as §1"}, "[23]": {"target": "Fuc(a1-2)[GalNAc(a1-3)]Gal(b1-4)GlcNAc(b1-3)Gal(b1-4)GlcNAc(b1-3)Gal(b1-4)GlcNAc", "method_in_brief": "as §1"}, "[24]": {"target": "Fuc(a1-2)[GalNAc(a1-3)]Gal(b1-4)GlcNAc(b1-3)GalNAc", "method_in_brief": "as §1"}, "[25]": {"target": "Fuc(a1-2)[GalNAc(a1-3)]Gal(b1-4)GlcNAc(b1-3)[Fuc(a1-2)[GalNAc(a1-3)]Gal(b1-4)GlcNAc(b1-6)]GalNAc", "method_in_brief": "as §1"}, "[26]": {"target": "Fuc(a1-2)[GalNAc(a1-3)]Gal(b1-4)GlcNAc(b1-6)GalNAc", "method_in_brief": "as §1"}, "[27]": {"target": "Fuc(a1-2)[GalNAc(a1-3)]Gal(b1-4)[Fuc(a1-3)]GlcNAc", "method_in_brief": "as §1"}, "[28]": {"target": "Fuc(a1-2)[GalNAc(a1-3)]Gal(b1-4)[Fuc(a1-3)]GlcNAc(b1-3)GalNAc", "method_in_brief": "as §1"}, "[29]": {"target": "Fuc(a1-2)[GalNAc(a1-4)]Gal(b1-4)GlcNAc", "method_in_brief": "as §1"}, "[30]": {"target": "Fuc(a1-2)[GalNAc(b1-3)]Gal", "method_in_brief": "as §1"}, "Fuc(a1-3)GlcNAc": {"target": "Fuc(a1-3)GlcNAc", "method_in_brief": "as §1"}, "[31]": {"target": "Fuc(a1-3)[Gal(b1-4)]Glc6S", "method_in_brief": "as §1"}, "[32]": {"target": "Fuc(a1-3)[Gal(b1-4)]GlcNAc", "method_in_brief": "as §1"}, "[33]": {"target": "Fuc(a1-3)[Gal(b1-4)]GlcNAc(b1-2)Man", "method_in_brief": "as §1"}, "[34]": {"target": "Fuc(a1-3)[Gal(b1-4)]GlcNAc(b1-2)Man(a1-3)[Fuc(a1-3)[Gal(b1-4)]GlcNAc(b1-2)Man(a1-6)]Man(b1-4)GlcNAc(b1-4)GlcNAc", "method_in_brief": "as §1"}, "[35]": {"target": "Fuc(a1-3)[Gal(b1-4)]GlcNAc(b1-2)Man(a1-3)[Fuc(a1-3)[Gal(b1-4)]GlcNAc(b1-2)Man(a1-6)]Man(b1-4)GlcNAc(b1-4)[Fuc(a1-6)]GlcNAc", "method_in_brief": "as §1"}, "[36]": {"target": "Fuc(a1-3)[Gal(b1-4)]GlcNAc(b1-3)Gal(b1-3)[Fuc(a1-4)]GlcNAc", "method_in_brief": "as §1"}, "[37]": {"target": "Fuc(a1-3)[Gal(b1-4)]GlcNAc(b1-3)Gal(b1-4)[Fuc(a1-3)]GlcNAc", "method_in_brief": "as §1"}},
  "note": "The list shows a part of the results.",
  "data": [
    {"binder": "B1", "values": [
      {"measurement": "glycan array binding signal (z-score)", "setting": "[1]", "value": -0.028},
      {"measurement": "glycan array binding signal (z-score)", "setting": "[2]", "value": -0.551},
      {"measurement": "glycan array binding signal (z-score)", "setting": "[3]", "value": -0.295},
      {"measurement": "glycan array binding signal (z-score)", "setting": "[4]", "value": 1.05},
      {"measurement": "glycan array binding signal (z-score)", "setting": "[5]", "value": -0.844},
      {"measurement": "glycan array binding signal (z-score)", "setting": "[6]", "value": -0.442},
      {"measurement": "glycan array binding signal (z-score)", "setting": "[7]", "value": 0.642},
      {"measurement": "glycan array binding signal (z-score)", "setting": "[8]", "value": 0.638},
      {"measurement": "glycan array binding signal (z-score)", "setting": "[9]", "value": -0.685},
      {"measurement": "glycan array binding signal (z-score)", "setting": "[10]", "value": 0.047},
      {"measurement": "glycan array binding signal (z-score)", "setting": "[11]", "value": 0.171},
      {"measurement": "glycan array binding signal (z-score)", "setting": "[12]", "value": 0.48},
      {"measurement": "glycan array binding signal (z-score)", "setting": "[13]", "value": 0.063},
      {"measurement": "glycan array binding signal (z-score)", "setting": "[14]", "value": 0.411},
      {"measurement": "glycan array binding signal (z-score)", "setting": "[15]", "value": -0.227},
      {"measurement": "glycan array binding signal (z-score)", "setting": "[16]", "value": 0.221},
      {"measurement": "glycan array binding signal (z-score)", "setting": "[17]", "value": -0.172},
      {"measurement": "glycan array binding signal (z-score)", "setting": "[18]", "value": -0.412},
      {"measurement": "glycan array binding signal (z-score)", "setting": "[19]", "value": -0.142},
      {"measurement": "glycan array binding signal (z-score)", "setting": "[20]", "value": -0.199},
      {"measurement": "glycan array binding signal (z-score)", "setting": "[21]", "value": 1.06},
      {"measurement": "glycan array binding signal (z-score)", "setting": "[22]", "value": -0.681},
      {"measurement": "glycan array binding signal (z-score)", "setting": "[23]", "value": 0.767},
      {"measurement": "glycan array binding signal (z-score)", "setting": "[24]", "value": -0.468},
      {"measurement": "glycan array binding signal (z-score)", "setting": "[25]", "value": 0.203},
      {"measurement": "glycan array binding signal (z-score)", "setting": "[26]", "value": -0.019},
      {"measurement": "glycan array binding signal (z-score)", "setting": "[27]", "value": 0.114},
      {"measurement": "glycan array binding signal (z-score)", "setting": "[28]", "value": 1.55},
      {"measurement": "glycan array binding signal (z-score)", "setting": "[29]", "value": 0.06},
      {"measurement": "glycan array binding signal (z-score)", "setting": "[30]", "value": 0.713},
      {"measurement": "glycan array binding signal (z-score)", "setting": "Fuc(a1-3)GlcNAc", "value": -0.343},
      {"measurement": "glycan array binding signal (z-score)", "setting": "[31]", "value": 0.378},
      {"measurement": "glycan array binding signal (z-score)", "setting": "[32]", "value": -0.246},
      {"measurement": "glycan array binding signal (z-score)", "setting": "[33]", "value": 1.03},
      {"measurement": "glycan array binding signal (z-score)", "setting": "[34]", "value": -0.031},
      {"measurement": "glycan array binding signal (z-score)", "setting": "[35]", "value": 0.476},
      {"measurement": "glycan array binding signal (z-score)", "setting": "[36]", "value": -0.38},
      {"measurement": "glycan array binding signal (z-score)", "setting": "[37]", "value": 0.074}
    ]}
  ]
}
